Measured data: PubChem BioAssay AID1117269 (University of Michigan, 2014)
The deposit covers 714 reagents; shown is a random part of them. Of all reagents, 49 (6.9%) got an active call. 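Active means a hit in at least one line; per-line hit columns show which; some siRNA pools appear more than once.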 A reagent listed more than once was tested more than once; the source does not tell the runs apart. The record does not give: the amount of reagent.

Assay: 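Kinases whose silencing alters a TGF-beta responsive luciferase reporter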 (primary screen)
System: human A549 lung cancer and 1833 breast cancer (MDA-MB-231-derived) cell lines carrying a stable BTR luciferase reporter
Reagent: siRNA pool against human genes
Time to read-out: 72 h after transfection, then 1 h TGF-beta before the read
Challenge: TGF-beta 10 ng/mL added one hour before luciferin and read-out
Detection: 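Live-cell BTR luciferase signal at 72 h after transfection and 1 h of TGF-beta at 10 ng/mL, fold versus scrambled siRNA, triplicate mean for each line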
Scale: fold over scrambled siRNA, A549 and fold over scrambled siRNA, 1833: higher = more reporter light, weaker TGF-beta receptor signalling
Active means: 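Active if a hit in A549 or 1833; a line's hit exceeds an upper quartile-based cutoff on mean log fold values, applied per plate and across the whole screen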
Calls: active = hit in at least one line; inactive = hit in neither line

gene symbol,"fold over scrambled siRNA, A549","fold over scrambled siRNA, 1833",hit in A549,hit in 1833,activity call
GAK,1.26,5.49,not a hit in A549,not a hit in 1833,inactive
MAP3K15,2.4,17.9,not a hit in A549,hit in 1833,
CERT1,1.19,2.12,not a hit in A549,not a hit in 1833,inactive
PRKAG3,3.43,6.22,not a hit in A549,not a hit in 1833,inactive
SGK1,5.11,4.56,not a hit in A549,not a hit in 1833,inactive
MAP3K6,2.75,0.519,not a hit in A549,not a hit in 1833,inactive
TLK1,2.29,3.48,not a hit in A549,not a hit in 1833,inactive
WHR1,1.33,5.38,not a hit in A549,not a hit in 1833,inactive
ADCK1,2.76,1.43,not a hit in A549,not a hit in 1833,inactive
FGFRL1,2.49,9.09,not a hit in A549,not a hit in 1833,inactive
DTYMK,1.27,2.98,not a hit in A549,not a hit in 1833,inactive
CAMK2N1,0.627,1.27,not a hit in A549,not a hit in 1833,inactive
GRK7,0.979,1.44,not a hit in A549,not a hit in 1833,inactive
EPHB1,1.57,2.11,not a hit in A549,not a hit in 1833,inactive
EPHB2,0.95,4.1,not a hit in A549,not a hit in 1833,inactive
MYO3A,0.74,6.67,not a hit in A549,not a hit in 1833,inactive
MYLK,1,8.05,not a hit in A549,not a hit in 1833,inactive
STK40,0.644,1.68,not a hit in A549,not a hit in 1833,inactive
STK40,1.05,2.48,not a hit in A549,not a hit in 1833,inactive
RIPK2,3.44,3.13,not a hit in A549,not a hit in 1833,inactive
MAP4K5,3.57,6.29,not a hit in A549,not a hit in 1833,inactive
MOK,3.49,14.6,not a hit in A549,hit in 1833,
PGK1,1.9,5.24,not a hit in A549,not a hit in 1833,inactive
DMPK,1.9,1.36,not a hit in A549,not a hit in 1833,inactive
ADCK2,1.13,1.33,not a hit in A549,not a hit in 1833,inactive
PANK1,5.67,4.04,hit in A549,not a hit in 1833,active
ACVR1B,2.01,1.93,not a hit in A549,not a hit in 1833,inactive
NEK11,2.83,4.07,not a hit in A549,not a hit in 1833,inactive

Part of the list above in another layout.
FGFRL1
- fold over scrambled siRNA, A549: 2.49
- fold over scrambled siRNA, 1833: 9.09
- hit in A549: not a hit in A549
- hit in 1833: not a hit in 1833
- activity call: inactive

DTYMK
- fold over scrambled siRNA, A549: 1.27
- fold over scrambled siRNA, 1833: 2.98
- hit in A549: not a hit in A549
- hit in 1833: not a hit in 1833
- activity call: inactive

CAMK2N1
- fold over scrambled siRNA, A549: 0.627
- fold over scrambled siRNA, 1833: 1.27
- hit in A549: not a hit in A549
- hit in 1833: not a hit in 1833
- activity call: inactive

GRK7
- fold over scrambled siRNA, A549: 0.979
- fold over scrambled siRNA, 1833: 1.44
- hit in A549: not a hit in A549
- hit in 1833: not a hit in 1833
- activity call: inactive

Continued.
gene symbol,"fold over scrambled siRNA, A549","fold over scrambled siRNA, 1833",hit in A549,hit in 1833,activity call
CALM3,4.29,6.81,not a hit in A549,not a hit in 1833,inactive
TAF1L,1.77,6.19,not a hit in A549,not a hit in 1833,inactive
NTRK1,0.905,1.05,not a hit in A549,not a hit in 1833,inactive
GNE,2.06,4.3,not a hit in A549,not a hit in 1833,inactive
NEK10,1.06,1.67,not a hit in A549,not a hit in 1833,inactive
AK3,2.1,2.67,not a hit in A549,not a hit in 1833,inactive
PRKD2,4,7.38,not a hit in A549,not a hit in 1833,inactive
LRRK1,2.62,4.16,not a hit in A549,not a hit in 1833,inactive
IGF2R,1.97,2.63,not a hit in A549,not a hit in 1833,inactive
TRPM7,3.76,3.24,not a hit in A549,not a hit in 1833,inactive
DYRK2,5.13,12.1,not a hit in A549,hit in 1833,
CASK,0.664,1.76,not a hit in A549,not a hit in 1833,inactive
VRK3,3.15,1.48,not a hit in A549,not a hit in 1833,inactive
AAK1,0.654,1.67,not a hit in A549,not a hit in 1833,inactive
RFK,3.2,3.13,not a hit in A549,not a hit in 1833,inactive
DCLK1,1.33,1.43,not a hit in A549,not a hit in 1833,inactive
MST1R,1.29,3.76,not a hit in A549,not a hit in 1833,inactive
TBCK,1.54,1.42,not a hit in A549,not a hit in 1833,inactive
MAP3K11,1.59,3.19,not a hit in A549,not a hit in 1833,inactive
SGK2,3.53,3.07,not a hit in A549,not a hit in 1833,inactive
CDK15,3.18,3.87,not a hit in A549,not a hit in 1833,inactive
CDKL4,3.05,2.11,not a hit in A549,not a hit in 1833,inactive
PRKACB,4.23,3.07,not a hit in A549,not a hit in 1833,inactive
STK31,1.64,4.27,not a hit in A549,not a hit in 1833,inactive
FGFR3,1.21,0.933,not a hit in A549,not a hit in 1833,inactive
JAK3,1.87,1.1,not a hit in A549,not a hit in 1833,inactive
LATS1,1.33,1.33,not a hit in A549,not a hit in 1833,inactive
PRKCQ,1.21,2.72,not a hit in A549,not a hit in 1833,inactive
DBF4,1.22,4.26,not a hit in A549,not a hit in 1833,inactive
EGFR,2.86,2.89,not a hit in A549,not a hit in 1833,inactive
BCR,0.474,1.23,not a hit in A549,not a hit in 1833,inactive
STK3,1.07,5.13,not a hit in A549,not a hit in 1833,inactive
FASTK,3.75,22.6,not a hit in A549,hit in 1833,
LIMK2,1.82,4.19,not a hit in A549,not a hit in 1833,inactive
PKDCC,0.86,2.8,not a hit in A549,not a hit in 1833,inactive
PRKX,4.86,5.99,not a hit in A549,not a hit in 1833,inactive
PKIB,2.49,1.3,not a hit in A549,not a hit in 1833,inactive
MAGI1,0.524,1,not a hit in A549,not a hit in 1833,inactive
NME5,6.06,3.93,hit in A549,not a hit in 1833,active
MAPKAPK5,1.44,0.852,not a hit in A549,not a hit in 1833,inactive
PRKAR2A,0.855,2.27,not a hit in A549,not a hit in 1833,inactive
WNK4,1.69,1.81,not a hit in A549,not a hit in 1833,inactive
PI4K2A,5.45,21.4,hit in A549,hit in 1833,active
NEK4,4.06,1.6,not a hit in A549,not a hit in 1833,inactive
MARK3,0.643,1.6,not a hit in A549,not a hit in 1833,inactive
